Data reported in US20250283871A1, “COMPOSITIONS AND METHODS FOR MODULATING THE INTERACTION BETWEEN SS18-SSX FUSION ONCOPROTEIN AND NUCLEOSOMES” (Dana-Farber Cancer Institute, Inc., priority 2020, published 2025).

B1: ADAR (protein, UniProt P55265 1-1226, looked up)
Double-stranded RNA-specific …: MNPRQGYSLSGYYTHPFQGYEHRQLRYQQPGPGSSPSSFLLKQIEFLKGQLPEAPVIGKQTPSLPPSLPGLRPRFPVLLASSTRGRQVDIRGVPRGVHLRSQGLQRGFQHPSPRGRSLPQRGVDCLSSHFQELSIYQDQEQRILKFLEELGEGKATTAHDLSGKLGTPKKEINRVLYSLAKKGKLQKEAGTPPLWKIAVSTQAWNQHSGVVRPDGHSQGAPNSDPSLEPEDRNSTSVSEDLLEPFIAVSAQAWNQHSGVVRPDSHSQGSPNSDPGLEPEDSNSTSALEDPLEFLDMAEIKEKICDYLFNVSDSSALNLAKNIGLTKARDINAVLIDMERQGDVYRQGTTPPIWHLTDKKRERMQIKRNTNSVPETAPAAIPETKRNAEFLTCNIPTSNASNNMVTTEKVENGQEPVIKLENRQEARPEPARLKPPVHYNGPSKAGYVDFENGQWATDDIPDDLNSIRAAPGEFRAIMEMPSFYSHGLPRCSPYKKLTECQLKNPISGLLEYAQFASQTCEFNMIEQSGPPHEPRFKFQVVINGREFPPAEAGSKKVAKQDAAMKAMTILLEEAKAKDSGKSEESSHYSTEKESEKTAESQTPTPSATSFFSGKSPVTTLLECMHKLGNSCEFRLLSKEGPAHEPKFQYCVAVGAQTFPSVSAPSKKVAKQMAAEEAMKALHGEATNSMASDNQPEGMISESLDNLESMMPNKVRKIGELVRYLNTNPVGGLLEYARSHGFAAEFKLVDQSGPPHEPKFVYQAKVGGRWFPAVCAHSKKQGKQEAADAALRVLIGENEKAERMGFTEVTPVTGASLRRTMLLLSRSPEAQPKTLPLTGSTFHDQIAMLSHRCFNTLTNSFQPSLLGRKILAAIIMKKDSEDMGVVVSLGTGNRCVKGDSLSLKGETVNDCHAEIISRRGFIRFLYSELMKYNSQTAKDSIFEPAKGGEKLQIKKTVSFHLYISTAPCGDGALFDKSCSDRAMESTESRHYPVFENPKQGKLRTKVENGEGTIPVESSDIVPTWDGIRLGERLRTMSCSDKILRWNVLGLQGALLTHFLQPIYLKSVTLGYLFSQGHLTRAICCRVTRDGSAFEDGLRHPFIVNHPKVGRVSIYDSKRQSGKTKETSVNWCLADGYDLEILDGTRGTVDGPRNELSRVSKKNIFLLFKKLCSFRYRRDLLRLSYGEAKKAARDYETAKNYFKKGLKDMGYGNWISKPQEEKNFYLCPV
B2: PRPF40A (protein, UniProt O75400 1-957, looked up)
Pre-mRNA-processing factor 40 …: MRPGTGAERGGLMVSEMESHPPSQGPGDGERRLSGSSLCSGSWVSADGFLRRRPSMGHPGMHYAPMGMHPMGQRANMPPVPHGMMPQMMPPMGGPPMGQMPGMMSSVMPGMMMSHMSQASMQPALPPGVNSMDVAAGTASGAKSMWTEHKSPDGRTYYYNTETKQSTWEKPDDLKTPAEQLLSKCPWKEYKSDSGKPYYYNSQTKESRWAKPKELEDLEGYQNTIVAGSLITKSNLHAMIKAEESSKQEECTTTSTAPVPTTEIPTTMSTMAAAEAAAAVVAAAAAAAAAAAAANANASTSASNTVSGTVPVVPEPEVTSIVATVVDNENTVTISTEEQAQLTSTPAIQDQSVEVSSNTGEETSKQETVADFTPKKEEEESQPAKKTYTWNTKEEAKQAFKELLKEKRVPSNASWEQAMKMIINDPRYSALAKLSEKKQAFNAYKVQTEKEEKEEARSKYKEAKESFQRFLENHEKMTSTTRYKKAEQMFGEMEVWNAISERDRLEIYEDVLFFLSKKEKEQAKQLRKRNWEALKNILDNMANVTYSTTWSEAQQYLMDNPTFAEDEELQNMDKEDALICFEEHIRALEKEEEEEKQKSLLRERRRQRKNRESFQIFLDELHEHGQLHSMSSWMELYPTISSDIRFTNMLGQPGSTALDLFKFYVEDLKARYHDEKKIIKDILKDKGFVVEVNTTFEDFVAIISSTKRSTTLDAGNIKLAFNSLLEKAEAREREREKEEARKMKRKESAFKSMLKQAAPPIELDAVWEDIRERFVKEPAFEDITLESERKRIFKDFMHVLEHECQHHHSKNKKHSKKSKKHHRKRSRSRSGSDSDDDDSHSKKKRQRSESRSASEHSSSAESERSYKKSKKHKKKSKKRRHKSDSPESDAEREKDKKEKDRESEKDRTRQRSESKHKSPKKKTGKDSGNWDTSGSELSEGELEKRRRTLLEQLDDDQ
B3: LCOR (protein, UniProt Q96JN0 1-433, looked up)
Ligand-dependent corepressor: MQRMIQQFAAEYTSKNSSTQDPSQPNSTKNQSLPKASPVTTSPTAATTQNPVLSKLLMADQDSPLDLTVRKSQSEPSEQDGVLDLSTKKSPCAGSTSLSHSPGCSSTQGNGRPGRPSQYRPDGLRSGDGVPPRSLQDGTREGFGHSTSLKVPLARSLQISEELLSRNQLSTAASLGPSGLQNHGQHLILSREASWAKPHYEFNLSRMKFRGNGALSNISDLPFLAENSAFPKMALQAKQDGKKDVSHSSPVDLKIPQVRGMDLSWESRTGDQYSYSSLVMGSQTESALSKKLRAILPKQSRKSMLDAGPDSWGSDAEQSTSGQPYPTSDQEGDPGSKQPRKKRGRYRQYNSEILEEAISVVMSGKMSVSKAQSIYGIPHSTLEYKVKERLGTLKNPPKKKMKLMRSEGPDVSVKIELDPQGEAAQSANESKNE
B4: SMC3 (protein, UniProt Q9UQE7 1-1217, looked up)
Structural maintenance of …: MYIKQVIIQGFRSYRDQTIVDPFSSKHNVIVGRNGSGKSNFFYAIQFVLSDEFSHLRPEQRLALLHEGTGPRVISAFVEIIFDNSDNRLPIDKEEVSLRRVIGAKKDQYFLDKKMVTKNDVMNLLESAGFSRSNPYYIVKQGKINQMATAPDSQRLKLLREVAGTRVYDERKEESISLMKETEGKREKINELLKYIEERLHTLEEEKEELAQYQKWDKMRRALEYTIYNQELNETRAKLDELSAKRETSGEKSRQLRDAQQDARDKMEDIERQVRELKTKISAMKEEKEQLSAERQEQIKQRTKLELKAKDLQDELAGNSEQRKRLLKERQKLLEKIEEKQKELAETEPKFNSVKEKEERGIARLAQATQERTDLYAKQGRGSQFTSKEERDKWIKKELKSLDQAINDKKRQIAAIHKDLEDTEANKEKNLEQYNKLDQDLNEVKARVEELDRKYYEVKNKKDELQSERNYLWREENAEQQALAAKREDLEKKQQLLRAATGKAILNGIDSINKVLDHFRRKGINQHVQNGYHGIVMNNFECEPAFYTCVEVTAGNRLFYHIVDSDEVSTKILMEFNKMNLPGEVTFLPLNKLDVRDTAYPETNDAIPMISKLRYNPRFDKAFKHVFGKTLICRSMEVSTQLARAFTMDCITLEGDQVSHRGALTGGYYDTRKSRLELQKDVRKAEEELGELEAKLNENLRRNIERINNEIDQLMNQMQQIETQQRKFKASRDSILSEMKMLKEKRQQSEKTFMPKQRSLQSLEASLHAMESTRESLKAELGTDLLSQLSLEDQKRVDALNDEIRQLQQENRQLLNERIKLEGIITRVETYLNENLRKRLDQVEQELNELRETEGGTVLTATTSELEAINKRVKDTMARSEDLDNSIDKTEAGIKELQKSMERWKNMEKEHMDAINHDTKELEKMTNRQGMLLKKKEECMKKIRELGSLPQEAFEKYQTLSLKQLFRKLEQCNTELKKYSHVNKKALDQFVNFSEQKEKLIKRQEELDRGYKSIMELMNVLELRKYEAIQLTFKQVSKNFSEVFQKLVPGGKATLVMKKGDVEGSQSQDEGEGSGESERGSGSQSSVPSVDQFTGVGIRVSFTGKQGEMREMQQLSGGQKSLVALALIFAIQKCDPAPFYLFDEIDQALDAQHRKAVSDMIMELAVHAQFITTTFRPELLESADKFYGVKFRNKVSHIDVITAEMAKDFVEDDTTHG
B5: U2AF2 (protein, UniProt P26368 2-475, looked up)
Splicing factor U2AF 65 kDa …: SDFDEFERQLNENKQERDKENRHRKRSHSRSRSRDRKRRSRSRDRRNRDQRSASRDRRRRSKPLTRGAKEEHGGLIRSPRHEKKKKVRKYWDVPPPGFEHITPMQYKAMQAAGQIPATALLPTMTPDGLAVTPTPVPVVGSQMTRQARRLYVGNIPFGITEEAMMDFFNAQMRLGGLTQAPGNPVLAVQINQDKNFAFLEFRSVDETTQAMAFDGIIFQGQSLKIRRPHDYQPLPGMSENPSVYVPGVVSTVVPDSAHKLFIGGLPNYLNDDQVKELLTSFGPLKAFNLVKDSATGLSKGYAFCEYVDINVTDQAIAGLNGMQLGDKKLLVQRASVGAKNATLVSPPSTINQTPVTLQVPGLMSSQVQMGGHPTEVLCLMNMVLPEELLDDEEYEEIVEDVRDECSKYGLVKSIEIPRPVDGVEVPGCGKIFVEFTSVFDCQKAMQGLTGRKFANRVVVTKYCDPDSYHRRDFW
B6: EEF1A1 (protein, UniProt P68104 2-462, looked up)
Elongation factor 1-alpha 1: GKEKTHINIVVIGHVDSGKSTTTGHLIYKCGGIDKRTIEKFEKEAAEMGKGSFKYAWVLDKLKAERERGITIDISLWKFETSKYYVTIIDAPGHRDFIKNMITGTSQADCAVLIVAAGVGEFEAGISKNGQTREHALLAYTLGVKQLIVGVNKMDSTEPPYSQKRYEEIVKEVSTYIKKIGYNPDTVAFVPISGWNGDNMLEPSANMPWFKGWKVTRKDGNASGTTLLEALDCILPPTRPTDKPLRLPLQDVYKIGGIGTVPVGRVETGVLKPGMVVTFAPVNVTTEVKSVEMHHEALSEALPGDNVGFNVKNVSVKDVRRGNVAGDSKNDPPMEAAGFTAQVIILNHPGQISAGYAPVLDCHTAHIACKFAELKEKIDRRSGKKLEDGPKFLKSGDAAIVDMVPGKPMCVESFSDYPPLGRFAVRDMRQTVAVGVIKAVDKKAAGAGKVTKSAQKAQKAK

tested on: BAF complex subunits and histone proteins; assay: Mass spectrometry proteomics of purified HA-SS18 WT and HA-SS18-SSX1 complexes (Tables 5A-5E); set-up: species or system human; conditions: HA-SS18SSX1_CHR_peptides: protein identified in the HA-SS18-SSX1 purification from solubilized chromatin (CHR), HEK-293T

Molecule	Total (total peptides)	Unique (unique peptides)
B1	5	5
B2	5	5
B3	5	5
B4	5	5
B5	5	5
B6	5	5

same assay, conditions: HA-SS18SSX1_NE_peptides: protein co-purified with HA-SS18-SSX1 BAF complexes from soluble nuclear extract (NE), HEK-293T cells

Molecule	Total (peptides)	Unique (peptides)
B1	2	2

same assay, conditions: HA-SS18SSX1 purification, NE (soluble nuclear extract) fraction, HEK-293T; peptides per identified protein

Molecule	Total (total peptides)	Unique (unique peptides)
B2	4	4
B4	3	3
B5	4	4
B6	19	9

same assay, conditions: HA-SS18WT_CHR_peptides: HA-SS18 WT purification from nuclease-treated solubilized chromatin (CHR), HEK-293T; label = protein identified

Molecule	Total (peptides)	Unique (peptides)
B1	8	8
B2	4	4
B3	3	3
B4	14	13
B6	3	3

same assay, conditions: HA-SS18WT_CHR_peptides: protein identified in HA-SS18 WT BAF complex purification from nuclease-treated solubilized chromatin (CHR), HEK-293T

Molecule	Total (total peptides)	Unique (unique peptides)
B5	1	1

same assay, conditions: HA-SS18WT_NE_peptides: HA-SS18 WT complexes purified from nuclear extract (NE), HEK-293T; label = protein identified (Gene Symbol)

Molecule	Total (peptides)	Unique (peptides)
B2	3	3
B5	6	6
B6	20	9

same assay, conditions: HA-SS18WT_NE_peptides: proteins co-purified with HA-SS18 WT from nuclear extract (NE), HEK-293T

Molecule	Total (peptides)	Unique (peptides)
B1	1	1
